Reference: PubChem BioAssay AID493014 (National Center for Advancing Translational Sciences (NCATS), 2011)
Out of some 340,000 compounds screened, about 170 (0.05%) were called active. Inconclusive results, whose numbers are uncertain, are shown with a selection of clear calls. Calls come from the whole dose curve; as a rule, active = well fitted inhibition curve with a large enough effect in the signal ratio, with a control signal flat (not every such curve was filed as active); inconclusive = small, poorly fitted or top-dose-only effect, or effect the other way, or a change in a side signal; inactive = flat fitted curve, though single readings scatter; the % refers to the signal ratio. A potency beside an inconclusive call is a rough fit, not a confirmed value.

assay: qHTS Assay to Find Inhibitors of Chronic Active B-Cell Receptor Signaling; conditions: ABC-DLBCL IkBa-CBG/CBR reporter, luminescence ratio (green luciferase fused to IkBa over red control in TMD8 lymphoma cells), 4 h; activity change, negative = inhibition: at 46.1 µM (top of the series) unless noted;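 for activity change, negative = inhibition: plate controls were basal doxycycline-induced cells for no effect and cells given 10 µM MG132 for full effect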
Summary of the method: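 TMD8 human ABC-DLBCL cells with doxycycline-inducible IκBα–green luciferase fusion and unfused red luciferase, in 0.5% FBS medium; compounds up to 46 uM, 4 h at 37C. Green/red luminescence ratio, filter-overlap corrected, fitted to concentration-response curves.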
Potency is the fitted concentration of half-maximal effect.

Compound	activity change, negative = inhibition	Potency
CCCCC(CCC(=O)Nc1ccn(-c2ccccc2)n1)C(=O)O (centres undefined)	inconclusive: 6.55%	–
CC(C)(C)C(=O)OCc1nc(-c2ccc(Cl)cc2)cs1	inconclusive: 26.7%	–
CN(CC(=O)Nc1ccc(Cl)cc1)C(=O)C1CCCC1	–	inconclusive: 0.146 µM [falling, full curve]
O=C(NNC(=O)c1ccccc1OCc1ccccc1Cl)c1csc(N2CCOCC2)n1	inconclusive: -19.2%	–
O=C(NC(=S)Nc1ccccc1[N+](=O)[O-])c1ccccc1Cl	inconclusive: -18%	–
CCOC(=O)C1=C2SCCN2C(=O)C(C#N)C1(C)C (centres undefined)	inconclusive: 1.25%	–
O=S(=O)(Nc1cccc(-c2ccc3nncn3n2)c1)c1cc(F)ccc1F	inconclusive: -11%	–
O=C1/C(=C\c2ccco2)NC(=S)N1c1ccccc1	inconclusive: 265%	–
CCc1cccc2c(N=O)c(O)[nH]c12	–	inconclusive: 25.9 µM [falling, single point]
CCCNC(=O)c1ccc2c(=O)n(Cc3ccco3)c(=S)[nH]c2c1	inconclusive: 15.9%	–
Cc1c(N2C(=O)CSC2=S)c(=O)n(-c2ccccc2)n1C	inactive: -0.605%	–
COc1ccc(NC(=O)C(C)Sc2nnc3c4c(nc(-c5ccc(OC)cc5)n23)CC(C)(C)OC4)cc1 (centres undefined)	inconclusive: 5.09%	–
Cc1ccc(OCC(=O)NC(=S)Nc2cccc(NC(=O)c3ccccc3Cl)c2)cc1	inconclusive: -17%	–
COc1ccc(C(=O)N(C)CCCC2CCCC2)cc1OC1CCN(C(C)C)CC1	inconclusive: -1.88%	–
COc1ccc(OCC(=O)Nc2c(C(=O)N(CCN(C)C)Cc3ccco3)oc3ccccc23)cc1	inconclusive: 5.49%	–
CC(=O)NCCC1CCN(C(=O)C2CCC(=O)N(C3CCCC3)C2)CC1 (centres undefined)	inactive: 0.45%	–
O=C(O)CCc1ccc(S(=O)(=O)NCCc2ccccc2)cc1	–	inconclusive: 35.5 µM [falling, single point]
COCCCn1c(SCC(=O)Nc2ccc(C)cc2)nc2ccccc2c1=O	inconclusive: 18.7%	–
O=S(=O)(Nc1ccccc1O)c1cccc2cccnc12	inconclusive: 11.5%	–
O=C(NNC(=O)c1ccc2ccccc2c1O)Nc1ccc(F)cc1	inconclusive: 6.19%	–
O=C(O)Cc1ccc(NC(=O)Nc2ccc(Br)cc2)cc1	inactive: 9.62%	–
O=C(Nc1ccc(-c2cn3c(n2)SCC3)cc1)c1ccc2c(c1)OCO2	inconclusive: -0.255%	–
CCOc1ccccc1N1C(=O)CC(N(O)c2ccccc2)C1=O (centres undefined)	inconclusive: -13.4%	–
CCCCCCCC1(C)NC(=O)N(c2ccccc2)N1 (centres undefined)	inconclusive: -9.59%	–
COc1ccc(OC)c(-n2c(SC)nnc2-c2c[nH]c3ccccc23)c1	–	inconclusive: 20.6 µM [falling, single point]
Cc1nnc(NC(=O)c2ccccc2NC(=O)c2ccccc2)s1	inconclusive: -14.5%	–
O=C(COC(=O)c1c(F)cccc1F)Nc1ccccc1OC(F)F	inactive: 3.71%	–

Compound	activity change, negative = inhibition	Potency
O=C(CN1C(=O)c2ccccc2S1(=O)=O)c1ccccc1	–	inconclusive: 6.51 µM [rising, partial curve, poor fit]
O=C(CSc1nnc(-c2ccco2)c(-c2ccco2)n1)c1ccccc1	–	inconclusive: 12.6 µM [rising, partial curve, poor fit]
CC1(C)CC(=O)c2c(n(S(=O)(=O)c3ccccc3)c3ccc(NS(=O)(=O)c4ccccc4)cc23)C1	–	inconclusive: 4.11 µM [rising, full curve, poor fit]
Cc1c(C(=O)OCCOC(C)C)[nH]c2c1C(=O)CC(c1ccco1)C2 (centres undefined)	inconclusive: -15.9%	–
Cc1ccc(-c2nc(CN3CCN(c4cnccn4)CC3)c(C)o2)o1	inconclusive: 12.5%	–
Cc1sc2ncnc(N3CCC(C(=O)N(C)CC(=O)Nc4ccccc4Cl)CC3)c2c1C	inconclusive: -15%	–
Cc1nc(NC(=O)/C=C/c2ccccc2)sc1C(=O)Nc1ccccc1	inconclusive: 170%	–
CN(c1ccc(O)cc1)c1nc(-c2cccnc2)cs1	–	inconclusive: 20 µM [falling, partial curve, poor fit]
Cc1ccc(OCC(=O)NNC(=S)NC(=O)c2cccs2)c(C)c1	inactive: 8.64%	–
Cc1ccc(NC(=O)OCC(F)(F)C(F)F)cc1NC(=O)OCC(F)(F)C(F)F	inconclusive: -1.34%	–
CN(C)S(=O)(=O)Nc1cccc(NC(=O)CC23CC4CC(CC(C4)C2)C3)c1	–	inconclusive: 25.1 µM [falling, single point]
COC(=O)c1ccc(Nc2nc3ccc(C)cc3n3cnnc23)cc1	–	inconclusive: 22.4 µM [falling, partial curve]
COc1ccc(O)c(-c2cc(-c3ccccc3Cl)[nH]n2)c1	inconclusive: 12%	–
C=CCN(C(=O)CSC1=NC(=O)CN1C(C)=O)c1nc(C)c(-c2ccccc2)s1	–	inconclusive: 22.4 µM [falling, single point]
CC(=O)c1cccc(NC(=O)c2cc3ccccn3n2)c1	–	inconclusive: 29.1 µM [falling, single point]
Cc1cccc(OCCCC(=O)NNC(=O)c2ccccn2)c1	–	inconclusive: 20.6 µM [falling, single point]
COc1ccc(CNc2ncc(-c3ccc(F)cc3)n2C)c2ccccc12	inactive: -19.7%	–
O=C(Nc1nc2cc3c(cc2s1)OCCO3)C1CCCCC1	–	inconclusive: 23.1 µM [falling, partial curve]
COc1ccc(NC(=O)CS(=O)(=O)c2cn(CC(=O)N3CCOCC3)c3ccccc23)cc1	–	inconclusive: 22.4 µM [falling, partial curve, poor fit]
CNC(=O)c1cnn(-c2nc(-c3ccc(OC)cc3)cs2)c1C(F)(F)F	inconclusive: -8.86%	–
CCOc1ccc(C(=O)NCc2ccco2)cc1Cl	inconclusive: -27.6%	–
O=C(CS(=O)(=O)Cc1ccccc1)N1CCc2ccccc21	inconclusive: 9.66%	–
Cc1ccsc1C(=O)NNC(=O)CCN1CCN(c2ccccc2)CC1	inconclusive: -29%	–
CC(=O)n1cc(N(C(=O)CCl)c2ccc(C)cc2)c2ccccc21	inconclusive: -0.603%	–
COc1cccc(/C=C/C(=O)Oc2ccc(C(=O)c3ccc(F)cc3)cc2)c1	inactive: -10%	–
C=CCn1c2ccccc2c2nnc(SCN3C(=O)c4ccccc4C3=O)nc21	inactive: -2.12%	–
CC(C)Cc1nnc(NC(=O)CCNC(=O)c2ccccc2Cl)s1	inconclusive: -0.431%	–

Compound	activity change, negative = inhibition	Potency
N/C(=N\OC(=O)N1c2ccccc2Sc2ccccc21)c1ccc(Br)cc1	–	inconclusive: 10.3 µM [falling, partial curve]
CCN(CC)c1ccc2c(c1)CCCN2	inconclusive: 13.4%	–
Cc1ccc(S(=O)(=O)NCCC(=O)Nc2ccc(Cl)c(Cl)c2)cc1	inactive: -1.04%	–
CCc1nc(SCC(=O)Nc2ccc(N(C)C)cc2)n[nH]1	inactive: -12.8%	–
COc1ccc(/C=C/C(O)=C2/C(=O)NC3(C)CC2c2ccccc2O3)c(OC)c1OC (centres undefined)	inactive: 0.906%	–
CCOC(=O)C1CCN(C(=O)Cc2c(C(=O)O)n(CC)c3ccccc23)CC1	inconclusive: -5.68%	–
Cc1ccccc1Cn1nnc(C(=O)Nc2cccc(C)c2C)c1N	inconclusive: 1.19%	–
Cc1ccc(C(=O)Nc2ccccc2C(=O)NCC2CCCO2)cc1 (centres undefined)	inconclusive: -0.737%	–
CC(=O)NC(NC(=S)Nc1ccc(N=Nc2ccccc2C)cc1C)C(Cl)(Cl)Cl (centres undefined)	inconclusive: -19.4%	–
O=c1c2c([N+](=O)[O-])cc([N+](=O)[O-])cc2sn1-c1ccc(Br)cc1	–	inconclusive: 20.6 µM [falling, single point]
CCCSc1nnc(NC(=O)Nc2ccc(F)cc2)s1	inconclusive: 2.45%	–
COc1ccc(-c2nc(SC)n(C(=O)c3ccco3)n2)cc1	inconclusive: 2.93%	–
CC(C)OC(=O)COc1ccc(-c2ccccc2)cc1	–	inconclusive: 1.46 µM [rising, full curve, poor fit]
CCOC(=O)c1nn(-c2ccc3c(c2)OCCO3)cc1O	inconclusive: -0.985%	–
Cn1ncc(Cl)c1C(=O)Nc1nc2ccc(Cl)cc2s1	–	inconclusive: 14.6 µM [falling, partial curve]
CC(C)[C@H](NC(=O)c1ccccc1)C(=O)OCC(=O)NCc1ccc(F)cc1	inconclusive: 4.83%	–
Nc1ncc(CN2CCCC(C(=O)Nc3ccc(-c4ccco4)cc3)C2)cn1 (centres undefined)	–	inconclusive: 11.2 µM [falling, partial curve, poor fit]
CCOc1ccc(-c2noc(CCC(=O)O)n2)cc1	–	inconclusive: 2.59 µM [falling, partial curve, poor fit]
Cc1[nH]c2ccccc2c1C(=O)CSc1nc2cc(S(=O)(=O)N3CCCCC3)ccc2o1	inactive: 3.39%	–
O=C(CO/N=C/c1ccc(OC(F)F)cc1)NCc1ccc(F)cc1	inconclusive: 10.5%	–
CCCN(CC(=O)Nc1ccccc1C)C(=O)c1ccc2[nH]c3c(c2c1)CC(C)CC3 (centres undefined)	–	inconclusive: 9.2 µM [rising, partial curve, poor fit]
CCC(=O)Nc1c(-c2ccccc2Cl)c(=O)c2ccccc2n1CC	inconclusive: 0.167%	–
CCC(C)[C@H](NC(=O)N1CC(=O)Nc2ccccc21)C(=O)N[C@H](Cc1c[nH]c2ccccc12)C(=O)O (some centres undefined)	inconclusive: -5%	–
CCOC(=O)C(NCc1ccccn1)(NC(=O)c1cccnc1)C(F)(F)F (centres undefined)	–	inconclusive: 18.4 µM [falling, single point]
CCOC(=O)C1=CN(Cc2cccc(I)c2)S(=O)(=O)N(C)C1C (centres undefined)	inconclusive: 0.104%	–

Shown as a markdown table: part of the list above.

| Compound | activity change, negative = inhibition | Potency |
| --- | --- | --- |
| COc1ccc(C(=O)N(C)CCCC2CCCC2)cc1OC1CCN(C(C)C)CC1 | inconclusive: -1.88% | – |
| COc1ccc(OCC(=O)Nc2c(C(=O)N(CCN(C)C)Cc3ccco3)oc3ccccc23)cc1 | inconclusive: 5.49% | – |
| O=C(CSc1nnc(-c2ccco2)c(-c2ccco2)n1)c1ccccc1 | – | inconclusive: 12.6 µM [rising, partial curve, poor fit] |
